Experimental data published in US7781187B2, “Fluorescent dyes” (Corning Incorporated, priority 2005, dated 2010).

Experiment: Coefficient of Variance of background signal, buffer plus dye only, microplate reader
Conditions: optimal excitation/emission wavelengths

Compound | Coefficient of Variance 100 μL/well [%] | Coefficient of Variance 200 μL/well [%]
C[n+]1c(/C=C/c2ccc(N(CCO)CCO)cc2)sc2ccccc21 [Dye 95] | 12 | 13
C[n+]1c(/C=C/c2ccc(OCCOCCOCCOc3ccc(/C=C/c4sc5ccccc5[n+]4C)cc3)cc2)sc2ccccc21 [HE-HE] | 24 | 13
CN1/C(=C/C=C/c2cc[n+](CCC[N+](C)(C)C)c3ccccc23)Sc2ccccc21.[I-].[I-] [TO-PRO-3 ™, reference compound] | 115 | 19
CN1/C(=C/c2cc[n+](CCC[N+](C)(C)CCC[N+](C)(C)CCC[n+]3ccc(/C=C4\Sc5ccccc5N4C)c4ccccc43)c3ccccc23)Sc2ccccc21.[I-].[I-].[I-].[I-] [TOTO-1™, reference compound] | 84 | 12
